# Out of some 580,000 compounds screened, about 6,100 (1.1%) were called active. The shares of active, inactive and inconclusive entries below differ from those in the screen. The call rests on the fitted dose curve; in most records, active means well fitted inhibition curve with a large enough effect; inconclusive means small, poorly fitted or top-dose-only effect, or another doubt; inactive means no such curve, though single readings can be large or run the other way. Potencies beside an inconclusive call are fits to weak or partial responses and may not hold up.
# Chains of the proteins cited; added tags and fusions are not shown. Lines headed by an entry give the natural chain unless they say otherwise; changes in a name come on top.
# UniProt P18054: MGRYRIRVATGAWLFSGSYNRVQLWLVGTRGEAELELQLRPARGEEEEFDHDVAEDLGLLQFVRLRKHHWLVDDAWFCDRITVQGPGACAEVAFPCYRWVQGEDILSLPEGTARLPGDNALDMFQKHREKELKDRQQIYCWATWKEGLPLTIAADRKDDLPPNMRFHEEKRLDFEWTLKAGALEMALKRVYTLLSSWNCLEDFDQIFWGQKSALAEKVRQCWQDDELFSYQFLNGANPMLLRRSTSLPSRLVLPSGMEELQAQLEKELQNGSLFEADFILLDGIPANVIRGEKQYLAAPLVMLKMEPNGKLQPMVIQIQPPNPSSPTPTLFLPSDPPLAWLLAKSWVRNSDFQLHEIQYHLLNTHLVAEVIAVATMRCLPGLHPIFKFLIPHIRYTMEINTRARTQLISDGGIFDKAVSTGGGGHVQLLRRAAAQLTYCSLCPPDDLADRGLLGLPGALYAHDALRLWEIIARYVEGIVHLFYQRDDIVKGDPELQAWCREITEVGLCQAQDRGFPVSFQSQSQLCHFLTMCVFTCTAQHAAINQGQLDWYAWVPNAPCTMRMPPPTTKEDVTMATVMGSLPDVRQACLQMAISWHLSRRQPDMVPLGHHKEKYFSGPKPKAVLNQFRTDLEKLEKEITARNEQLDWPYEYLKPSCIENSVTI
# Target: Polyunsaturated fatty acid lipoxygenase ALOX12 (Homo sapiens) (UniProt P18054)
# Assay: Primary qHTS assay for inhibitors of human arachidonate 12S-lipoxygenase (ALOX12): Round 2
# Conditions: purified 12hLO, xylenol orange hydroperoxide absorbance; activity change, negative = inhibition: at 108 µM (top of the series) unless noted
# Procedure, shortened: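 Purified human 12hLO at 150 nM in 25 mM Hepes, 0.01% Triton X-100, pH 7.0, preincubated 15 min at room temperature with compound. Reaction started with 40 uM arachidonic acid, 30 min at room temperature. Hydroperoxide measured by Fe-xylenol orange, 573/405 nm absorbance ratio.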
# On the % scale 0 is the no-effect control and ±100 the full control effect; potency means the concentration at half of the fitted maximal effect.
Compound,Potency,"activity change, negative = inhibition"
COc1nccnc1NS(=O)(=O)c1ccc(NC(=S)NC(=O)c2ccc(F)c(F)c2)cc1,"inconclusive: 35.5 µM [inhibitor, partial curve]",
Cc1oc2cc(OC(=O)C(C)(C)C)ccc2c(=O)c1-c1ccccc1,"inconclusive: 141 µM [inhibitor, single point]",
Cc1cccc(NC(=O)CN(C2=NC3CS(=O)(=O)CC3S2)c2ccccc2F)c1 (stereo not drawn),inactive,
COC(=O)c1cc(-c2ccc(Br)cc2)c2c(=O)[nH]c(=O)n(C)c2n1,inactive,
O=C(O)C(C(=O)/C=C/c1ccccc1)=C1SCCS1,"inconclusive: 35.5 µM [inhibitor, partial curve, poor fit]",
CCOc1ccccc1NC(=O)Nc1ccsc1C(=O)OC,inactive,
O=C(NC1CC1)[C@@H]1CN(Cc2ccc(Br)cc2)C[C@H]1CO,inactive,
Clc1ccc(N2CCN(/N=C/c3ccncc3)CC2)cc1,"inconclusive: 112 µM [inhibitor, single point]",
CN(C)C(=O)N1CCc2nc(-c3ccccc3)nc(-c3ccc(Cl)cc3)c2C1,"inconclusive: 50.1 µM [inhibitor, partial curve]",
Cc1ccc(C)c(NC(CC(=O)c2ccccc2)C(=O)O)c1 (stereo not drawn),"inconclusive: 44.7 µM [inhibitor, partial curve, poor fit]",
Cn1c(CSCc2ccc(Cl)c(Cl)c2)n[nH]c1=S,"inconclusive: 44.7 µM [inhibitor, partial curve, poor fit]",
C/C(=N/NS(=O)(=O)c1ccc(Cl)cc1)c1cccc(NC(=O)c2ccncc2)c1,"inconclusive: 89.1 µM [inhibitor, partial curve, poor fit]",
Cc1c(C(=O)Nc2cccc(C#N)c2)sc2nc3n(c(=O)c12)CCCCC3,inactive,
CN(Cc1ccccc1)C(=O)COc1ccc(N(C)S(=O)(=O)c2ccc(F)cc2)cc1,inactive,
CN(CCCc1cnn(C)c1)C(=O)[C@H]1CNC[C@@H](C(=O)N2CCOCC2)C1,"inconclusive: 2.82 µM [inhibitor, full curve, poor fit]",
Cc1ccc(S(=O)(=O)CC(=O)Nc2cc(C(C)(C)C)no2)cc1,"inconclusive: 44.7 µM [inhibitor, partial curve, poor fit]",
Cc1cc2oc(C(=O)Nc3ccc(S(N)(=O)=O)cc3)c(C)c2cc1Cl,"inconclusive: 112 µM [inhibitor, partial curve, poor fit]",
CCN(CC)c1ccc(/C=N/NS(=O)(=O)c2cccc([N+](=O)[O-])c2)cc1,"inconclusive: 39.8 µM [inhibitor, partial curve, poor fit]",
COCC1CN(C(=O)CC2CCN(C(C)=O)CC2)CC12CCNCC2 (stereo not drawn),"inconclusive: 31.6 µM [inhibitor, single point]",
COc1ccc(N2CC(C(=O)NCCNC(=O)c3c[nH]c4ccccc34)CC2=O)cc1 (stereo not drawn),"inconclusive: 0.708 µM [inhibitor, full curve, poor fit]",
CCOC(=O)C1C(=O)C=C(c2cccs2)CC1c1ccccc1C (stereo not drawn),inactive,

Compound,Potency,"activity change, negative = inhibition"
CC1(C)CC(NS(=O)(=O)c2ccc(C(C)(C)C)cc2)CC(C)(C)N1,"inconclusive: 15.8 µM [inhibitor, full curve, poor fit]",
O=C1OC2(CCCCC2)OC(=O)C1=CNc1nc2ccccc2s1,"inconclusive: 89.1 µM [inhibitor, single point]",
CCCn1c(=O)[nH]c(=O)c2c1nc(CN1CCc3ccccc3C1)n2CCOC,"inconclusive: 31.6 µM [inhibitor, partial curve, poor fit]",
CS(=O)(=O)N(CC(=O)NCCSCc1cccc(Cl)c1)c1ccc(F)cc1,"inconclusive: 79.4 µM [inhibitor, single point]",
Cc1ccc(C)c(/C(O)=C2\C(=O)C(=O)N(c3nnc(C)s3)C2c2ccccc2)c1 (stereo not drawn),"inconclusive: 7.08 µM [inhibitor, full curve, poor fit]",
COc1cc2ccc(=O)oc2c(O)c1OCC=C(C)C,"inconclusive: 14.1 µM [inhibitor, full curve]",
CCOc1ccc2nc(SCC(=O)c3cccs3)sc2c1,"inconclusive: 50.1 µM [inhibitor, partial curve, poor fit]",
CCc1cccc(CC)c1NC(=O)CSc1nc2ccc(N3C(=O)C4C(C3=O)[C@H]3C=C[C@@H]4C3)cc2s1 (stereo partly drawn),"inconclusive: 56.2 µM [inhibitor, partial curve, poor fit]",
Cc1cc(S(=O)(=O)NC2CCCC2)ccc1-n1cnnn1,"inconclusive: 224 µM [inhibitor, partial curve, poor fit]",
O=C(Nc1ccc(F)c(Cl)c1)Nc1csc2ccccc12,"inconclusive: 50.1 µM [inhibitor, partial curve, poor fit]",
CCCOc1ccc(/C=c2\sc3nc(-c4ccco4)nn3c2=O)cc1OCC,"inconclusive: 25.1 µM [inhibitor, single point]",
CCN(Cc1ccccc1OC)CC1CCCN(CCc2cccc(OC)c2)C1 (stereo not drawn),"inconclusive: 39.8 µM [inhibitor, partial curve, poor fit]",
N#Cc1ccc(/C=C/C(=O)c2ccc3c(c2)CCO3)cc1,inactive,
CN(C)CCNC(=O)c1ccc(COc2ccc(Cl)cc2Cl)cc1,"inconclusive: 79.4 µM [inhibitor, partial curve, poor fit]",
COc1ccc(Cl)cc1NC(=O)c1sc2nc(-c3ccc(OC)c(OC)c3)ccc2c1N,"inconclusive: 44.7 µM [inhibitor, partial curve, poor fit]",
O=C(O)C/C(=C/c1ccc(C(=O)O)cc1)c1nc2ccccc2s1,"inconclusive: 5.62 µM [inhibitor, full curve, poor fit]",
COc1ccc(C(CC(=O)Nc2nccs2)n2cccc2)cc1 (stereo not drawn),"inconclusive: 35.5 µM [inhibitor, single point]",
CCN(CC)c1ncnc2c1cnn2Cc1ccc(C)cc1,inactive,
O=C(NCc1ccccc1)c1ccc2c(c1)N(Cc1ccc(F)cc1)CCS2,"inconclusive: 50.1 µM [inhibitor, partial curve, poor fit]",
CC(=O)Nc1ccc2nc(SCC(=O)Nc3ccc(N4CCOCC4)c(Cl)c3)sc2c1,"inconclusive: 28.2 µM [inhibitor, partial curve]",
COc1ccc(C2=Nc3nc(-c4ccccc4)cn3C(c3ccc(OC)cc3)C2)cc1 (stereo not drawn),"inconclusive: 89.1 µM [inhibitor, partial curve, poor fit]",

# In the list so far, these have an NH in an aromatic ring.
Compound,Potency,"activity change, negative = inhibition"
COC(=O)c1cc(-c2ccc(Br)cc2)c2c(=O)[nH]c(=O)n(C)c2n1,inactive,
Cn1c(CSCc2ccc(Cl)c(Cl)c2)n[nH]c1=S,"inconclusive: 44.7 µM [inhibitor, partial curve, poor fit]",
COc1ccc(N2CC(C(=O)NCCNC(=O)c3c[nH]c4ccccc34)CC2=O)cc1 (stereo not drawn),"inconclusive: 0.708 µM [inhibitor, full curve, poor fit]",
CCCn1c(=O)[nH]c(=O)c2c1nc(CN1CCc3ccccc3C1)n2CCOC,"inconclusive: 31.6 µM [inhibitor, partial curve, poor fit]",

# Next part

Compound,Potency,"activity change, negative = inhibition"
CCN(CC)CCNC(=O)CCc1ncc(-c2ccc(Cl)cc2)o1,inactive,
Fc1ccc(OC2CN(CC3CC3)C2)c(F)c1,,inconclusive: -46.2% [inhibitor] [at 176 µM]
Cc1cccc(C)c1-n1nnnc1C1(C)CCC(=O)N1Cc1ccco1 (stereo not drawn),"inconclusive: 2.24 µM [inhibitor, full curve, poor fit]",
Cc1cc(C)c2sc(N(CCCN(C)C)C(=O)c3ccc(S(=O)(=O)N4CCCc5ccccc54)cc3)nc2c1,"inconclusive: 3.16 µM [inhibitor, full curve, poor fit]",
COc1cc(NC(=O)[C@H]2CCC[C@H]2NC(=O)c2cnc(C)cn2)cc(OC)c1OC,inactive,
O=C(CSc1ncn(-c2ccccc2)n1)c1cccs1,"inconclusive: 20 µM [inhibitor, partial curve, poor fit]",
Cc1cc(C)c2c(=O)n(CC(=O)Nc3cccc(Cl)c3C)sc2n1,active: 0.708 µM,
Cc1ccccc1[C@H]1C[C@@H](O)[C@@H](O)[C@@H]1NC(=O)c1c(-c2ccccc2)noc1C,inactive,
COc1ccc(C2=NN(C(=O)COC(=O)c3ccc(S(C)(=O)=O)c([N+](=O)[O-])c3)C(c3ccco3)C2)cc1 (stereo not drawn),"inconclusive: 39.8 µM [inhibitor, partial curve, poor fit]",
O=C(Nc1nc(-c2ccc3c(c2)Cc2ccccc2-3)cs1)c1ccccc1,"inconclusive: 56.2 µM [inhibitor, partial curve, poor fit]",
O=C(c1cccc(S(=O)(=O)N2CCc3ccccc3C2)c1)N1CCN(c2ccc(O)cc2)CC1,"inconclusive: 112 µM [inhibitor, single point]",
COc1ccc(C(=O)NC(=S)Nc2cccc(NC(=O)c3ccco3)c2)cc1[N+](=O)[O-],"inconclusive: 7.08 µM [inhibitor, full curve, poor fit]",
O=C(Cc1ccc(Cl)cc1)N/N=C/c1ccc(O)c(O)c1,active: 14.1 µM,
Fc1cc(NC(=S)N2CCc3ccccc32)ccc1Cl,"inconclusive: 39.8 µM [inhibitor, partial curve, poor fit]",
CC(C)(C)c1ccc(C(=O)NNC(=S)NC(=O)c2cccnc2)cc1,"inconclusive: 44.7 µM [inhibitor, partial curve, poor fit]",
COc1ccc(NC2CC(=O)N(C)C2=O)cc1 (stereo not drawn),inactive,
COc1cc(N2CCC(N3CCN(C)CC3)CC2)ccc1Nc1ncc(Cl)c(Nc2ccccc2S(=O)(=O)C(C)C)n1,"inconclusive: 0.544 µM [inhibitor, single point]",
O=C(Cc1cccc(F)c1)N1CCC(n2cc(-c3nc(C4CC4)no3)nn2)CC1,inactive,
O=C(CC[C@@H]1CNC(=O)[C@@H]2C[C@H](NC(=O)Nc3ccc(F)cc3F)CN12)NCc1ccccc1,"inconclusive: 10 µM [inhibitor, full curve, poor fit]",
Fc1ccccc1COc1ccc(Br)cc1CNc1nn[nH]n1,inactive,
Cn1ccc(C(=O)NCc2nnc3n2C(C(=O)NCC2CC2)CC3)n1 (stereo not drawn),"inconclusive: 11.2 µM [inhibitor, full curve, poor fit]",

# Reference: PubChem BioAssay AID1671190 (National Center for Advancing Translational Sciences (NCATS), 2021)
